# PubChem BioAssay (Tox21)
# The chains behind the UniProt entries cited, without tags or fusion partners. Where a name states a change or a piece, a line headed by the entry shows the natural chain unless it says otherwise.
# UniProt P14416, whole entry, looked up: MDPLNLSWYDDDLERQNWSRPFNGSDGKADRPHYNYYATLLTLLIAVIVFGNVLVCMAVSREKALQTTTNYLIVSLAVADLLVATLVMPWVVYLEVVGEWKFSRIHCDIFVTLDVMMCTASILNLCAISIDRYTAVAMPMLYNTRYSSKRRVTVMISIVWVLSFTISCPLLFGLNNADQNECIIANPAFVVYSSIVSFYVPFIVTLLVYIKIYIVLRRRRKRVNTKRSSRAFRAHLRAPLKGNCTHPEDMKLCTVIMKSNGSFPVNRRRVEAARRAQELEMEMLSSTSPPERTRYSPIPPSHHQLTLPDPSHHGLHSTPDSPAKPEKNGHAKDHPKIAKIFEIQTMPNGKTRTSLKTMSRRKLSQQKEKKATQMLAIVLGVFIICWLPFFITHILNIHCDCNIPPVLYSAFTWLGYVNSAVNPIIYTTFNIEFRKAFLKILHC
# UniProt P28223, whole entry, looked up: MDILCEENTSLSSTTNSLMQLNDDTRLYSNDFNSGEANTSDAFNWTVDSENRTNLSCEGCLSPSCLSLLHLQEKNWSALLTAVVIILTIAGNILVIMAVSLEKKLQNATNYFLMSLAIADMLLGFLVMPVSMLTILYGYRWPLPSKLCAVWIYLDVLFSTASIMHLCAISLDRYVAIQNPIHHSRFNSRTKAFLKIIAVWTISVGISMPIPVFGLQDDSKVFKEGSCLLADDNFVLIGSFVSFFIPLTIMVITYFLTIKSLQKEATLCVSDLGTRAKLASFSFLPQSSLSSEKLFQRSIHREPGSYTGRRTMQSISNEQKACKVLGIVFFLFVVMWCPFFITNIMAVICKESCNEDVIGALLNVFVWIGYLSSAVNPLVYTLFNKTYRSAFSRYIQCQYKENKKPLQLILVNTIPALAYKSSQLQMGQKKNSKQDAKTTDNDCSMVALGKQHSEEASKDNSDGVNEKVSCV
# UniProt P11229: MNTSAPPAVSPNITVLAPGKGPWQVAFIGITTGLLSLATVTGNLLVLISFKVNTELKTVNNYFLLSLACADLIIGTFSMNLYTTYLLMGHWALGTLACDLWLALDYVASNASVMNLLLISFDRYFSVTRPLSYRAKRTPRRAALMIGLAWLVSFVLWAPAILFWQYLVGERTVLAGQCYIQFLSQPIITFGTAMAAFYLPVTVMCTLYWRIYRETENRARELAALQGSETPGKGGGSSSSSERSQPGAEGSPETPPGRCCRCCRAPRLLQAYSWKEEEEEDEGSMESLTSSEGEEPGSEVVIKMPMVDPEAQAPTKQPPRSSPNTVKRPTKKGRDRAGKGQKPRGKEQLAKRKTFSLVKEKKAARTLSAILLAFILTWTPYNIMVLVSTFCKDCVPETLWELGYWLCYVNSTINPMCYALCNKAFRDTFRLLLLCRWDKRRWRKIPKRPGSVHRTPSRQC
# Several values for one entry are separate records, joined by “and”; a condition that tells them apart may be missing. Equal values may be shown once. This list was built around the results that the source calls inconclusive (neither active nor inactive); the mix of calls is not that of the screen. For part of these data: Potencies of inconclusive entries are doubtful fits and often do not repeat. Activity calls are given as the source filed them. Unless noted, the call rests on the fitted dose curve.
# What was measured:
# [1] = p53 small molecule agonists, cell-based qHTS assay with human liver microsomes: qHTS cell viability counter screen (AID 1963579); further: nearly all actives have a fitted effect of over 45% in size; further: potency means the concentration at half of the fitted maximal effect
# Procedure, shortened: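 Metabolic activation used human liver microsomes and NADPH, both 0.5 mg/mL final, over 16 hours at 37 C on p53RE-bla cells (4,000/well). Cytotoxicity measured by CellTiter-Glo luminescence, 30 min at room temperature.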
# [2] = molecular target: Beta-2 adrenergic receptor (Homo sapiens) (UniProt P07550); experiment: Adrenergic beta2 receptor (ADRB2) small molecule agonists, cell-based qHTS assay (AID 1963593); conditions: CHO-ADRB2 cells, cAMP HTRF, 30 min; activation: at 92.4 µM (top of the series) unless noted; further: potency means the concentration at half of the fitted maximal effect;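 on activation: CHO cells stably overexpressing human ADRB2; on the % scale 0 is the no-effect control and ±100 the full control effect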
# Procedure, shortened: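 CHO cells stably over-expressing ADRB2 were plated overnight at 37C, then dosed with compounds plus a stimulation mix containing 100uM IBMX and 25uM Ro-20-1724 for 0.5hr at room temperature. cAMP was measured by HTRF competition, 1hr.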
# [3] = molecular target: D(2) dopamine receptor (Homo sapiens) (UniProt P14416); experiment: Dopamine D2 receptor (DRD2) small molecule agonists, cell-based qHTS assay (AID 1963594); conditions: HEK293-DRD2 cAMP HTRF, agonist mode, 30 min; activation: at 92.4 µM (top of the series) unless noted; further: on the % scale 0 is the no-effect control and ±100 the full control effect; nearly all actives have a fitted effect of over 35% in size
# Procedure, shortened: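 HEK293 cells stably expressing human DRD2, pre-treated with PDE inhibitor Ro20-1724 (0.1 mM final) and compound 10 min at room temperature, then stimulated with NKH477 (200nM […]) for 30 min. cAMP read by HTRF (665/620 nm).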
# [4] = p53 small molecule agonists, cell-based qHTS assay with rat liver microsomes: qHTS cell viability counter screen (AID 1963580); further: nearly all actives have a fitted effect of over 45% in size; further: potency means the concentration at half of the fitted maximal effect; on activity change, negative = cytotoxicity: on the % scale 0 is the no-effect control and ±100 the full control effect
# Procedure, shortened: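 p53RE-bla HCT-116 cells were exposed 16 h at 37 C to compounds with rat liver microsomes (0.5 mg/mL) and NADPH (0.5 mg/mL). Viability was measured in the same wells as ATP content by CellTiter-Glo luminescence.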
# [5] = p53 small molecule agonists, cell-based qHTS assay: qHTS cell viability counter screen (AID 1963581); further: nearly all actives have a fitted effect of over 45% in size; further: potency means the concentration at half of the fitted maximal effect; on activity change, negative = cytotoxicity: on the % scale 0 is the no-effect control and ±100 the full control effect
# Procedure, shortened: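 p53RE-bla HCT-116 cells, compounds added 5 h after plating and incubated 16 h at 37 C. Cytotoxicity measured in the same wells as intracellular ATP by CellTiter-Glo luminescence after 30 min at room temperature.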
# [6] = molecular target: 5-hydroxytryptamine receptor 2A (Homo sapiens) (UniProt P28223); experiment: 5-hydroxytryptamine receptor 2A (HTR2A) small molecule antagonists, cell-based qHTS assay (AID 1963586); further: nearly all actives have a fitted effect of over 45% in size; further: potency means the concentration at half of the fitted maximal effect
# Procedure, shortened: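 Antagonist-mode intracellular calcium assay: DOI (4 nM) added after 5 min compound pre-incubation at room temperature to dye-loaded HTR2A-CHO cells. Fluorescence followed for 3 min, sampled every second.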
# [7] = molecular target: Muscarinic acetylcholine receptor M1 (Homo sapiens) (UniProt P11229); experiment: Cholinergic receptor muscarinic 1 (CHRM1) small molecule antagonists, cell-based qHTS assay (AID 1963588); further: potency means the concentration at half of the fitted maximal effect; nearly all actives have a fitted effect of over 40% in size
# Procedure, shortened: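 CHRM1-CHO calcium-flux assay, antagonist mode. Cells were seeded 18 h, dye-loaded 1 h at 37 C and given compound for 5 min at RT, then acetylcholine was added at 50nM. FDSS fluorescence was read 3 min; 15 concentrations, three runs.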
# [8] = molecular target: Muscarinic acetylcholine receptor M1 (Homo sapiens) (UniProt P11229); experiment: Cholinergic receptor muscarinic 1 (CHRM1) small molecule agonists, cell-based qHTS assay (AID 1963589); further: potency means the concentration at half of the fitted maximal effect; nearly all actives have a fitted effect of over 35% in size
# Procedure, shortened: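 CHO cells stably expressing human CHRM1 were loaded with calcium dye for 1 h at 37 C, then compound was added in agonist mode. Intracellular calcium fluorescence was followed kinetically at 1 s intervals. Fifteen concentrations were tested in three independent runs.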
# [9] = cAMP Responsive Elements (CRE) small molecule agonists, cell-based qHTS assay (AID 1963590); conditions: CRE-bla HEK293T, beta-lactamase FRET ratio, 3 h; activation: at 92.4 µM (top of the series) unless noted; further: potency means the concentration at half of the fitted maximal effect
# Procedure, shortened: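 CRE-bla HEK 293T cells, 2,000/well in DMEM with 10% dialyzed FBS and 25 mM HEPES, pre-incubated 18 h at 37 C, then exposed to compound 3 h at 37 C. Beta-lactamase reporter read with LiveBLAzer B/G FRET substrate after 2 h at room temperature.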
# [10] = cAMP Responsive Elements (CRE) small molecule antagonists, cell-based qHTS assay (AID 1963591; active means well fitted inhibition curve with a large enough effect in the signal ratio in the repeat runs, not every such curve was filed as active; inconclusive means weak or mixed curves, or effect the other way; the % refers to the signal ratio; further: potency means the concentration at half of the fitted maximal effect); conditions: CRE-bla HEK293T, beta-lactamase FRET ratio; activity change, negative = inhibition: at 92.4 µM (top of the series) unless noted
# Procedure, shortened: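 CRE-bla HEK293T cells plated 18 h, then given compound plus NKH477 at 0.25 uM final for 3 h at 37C. Beta-lactamase reporter read with LiveBLAzer B/G FRET substrate after 2 h at room temperature.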
# [11] = molecular target: Beta-2 adrenergic receptor (Homo sapiens) (UniProt P07550); experiment: Adrenergic beta2 receptor (ADRB2) small molecule antagonists, cell-based qHTS assay (AID 1963592); conditions: CHO-ADRB2 cells, isoproterenol-stimulated cAMP HTRF ratio, 0.5 h; activity change, negative = inhibition: at 92.4 µM (top of the series) unless noted; further: nearly all actives have a fitted effect of over 50% in size; further: potency means the concentration at half of the fitted maximal effect; on activity change, negative = inhibition: on the % scale 0 is the no-effect control and ±100 the full control effect
# Procedure, shortened: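 Cells (CHO, stable ADRB2 overexpression) incubated 18-20hr at 37C; compounds added from DMSO; agonist mix (1nM isoproterenol, 100uM IBMX, 25uM Ro-20-1724) added; 0.5hr RT; d2-cAMP and anti-cAMP-cryptate added; 1hr RT; 665/615 nm read.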
# [12] = molecular target: D(2) dopamine receptor (Homo sapiens) (UniProt P14416); experiment: Dopamine D2 receptor (DRD2) small molecule antagonists, cell-based qHTS assay (AID 1963595; active means well fitted inhibition curve with a large enough effect in the signal ratio in the repeat runs, with a control signal flat; inconclusive means weak or mixed curves, or effect the other way; the % refers to the signal ratio; further: potency means the concentration at half of the fitted maximal effect); conditions: HEK293-DRD2 cAMP HTRF antagonist mode; activity change, negative = inhibition: at 92.4 µM (top of the series) unless noted
# Procedure, shortened: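 Antagonist mode in DRD2-HEK293 cells: after compound addition with 0.1 mM Ro20-1724, cells received quinpirole (12 nM) and NKH477 (200 nM) for 30 min at room temperature; HTRF cAMP read after 1 h detection.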
# [13] = p53 small molecule agonists, cell-based qHTS assay (AID 1963582; active means well fitted activation curve with a large enough effect in the signal ratio in the repeat runs, not every such curve was filed as active; inconclusive means weak or mixed curves; the % refers to the signal ratio; further: potency means the concentration at half of the fitted maximal effect); conditions: HCT-116 p53RE-bla reporter, beta-lactamase FRET ratio, 16 h; activation: at 66 µM (top of the series) unless noted
# Procedure, shortened: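 p53RE-bla reporter cells, compounds added in DMSO after 5 h plating, incubated 16 h at 37 C. Beta-lactamase read via 2 h room-temperature LiveBLAzer B/G FRET substrate, fluorescence intensity.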
# [14] = molecular target: 5-hydroxytryptamine receptor 2A (Homo sapiens) (UniProt P28223); experiment: 5-hydroxytryptamine receptor 2A (HTR2A) small molecule agonists, cell-based qHTS assay (AID 1963587); further: potency means the concentration at half of the fitted maximal effect; nearly all actives have a fitted effect of over 30% in size
# Procedure, shortened: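 CHO cells stably expressing human HTR2A, plated 18 h, loaded with calcium dye 1 h at 37 C. Agonist mode: compounds added and intracellular calcium fluorescence recorded kinetically for 2 min at 1 sec intervals.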
smiles,measurement,setting,value
COc1cc(NS(=O)(=O)c2ccc(N)cc2)nc(OC)n1,Potency,[1],"inconclusive: 25.1 µM [rising, single point]"
same,Potency,[2],"inconclusive: 3.35 µM [inhibitor, single point]"
same,Potency,[3],inactive
CC/C(=C(/c1ccc(O)cc1)c1ccc(OCCN(C)C)cc1)c1ccccc1,Potency,[4],"inconclusive: 30.2 µM [cytotoxic, single point]"
same,Potency,[5],"inconclusive: 30.2 µM [cytotoxic, partial curve, poor fit]"
same,Potency,[6],"inconclusive: 19.7 µM [inhibitor, partial curve, poor fit]"
same,Potency,[7],active: 13.9 µM
same,Potency,[8],inconclusive: 32.3 µM
same,Potency,[9],inconclusive: 45.2 µM [fluorescent]
same,Potency,[10],inconclusive: 38.5 µM [fluorescent]
same,"activity change, negative = inhibition",[11],inconclusive: -30% [at 42.5 µM]
same,activation,[2],inconclusive: -33.5% [at 42.5 µM]
same,Potency,[12],"inconclusive: 40.3 µM [inhibitor, single point]"
O=C(O)CCCC[P+](c1ccccc1)(c1ccccc1)c1ccccc1,Potency,[1],"inconclusive: 22.3 µM [rising, single point]"
same,Potency,[2],inactive
same,Potency,[12],"inconclusive: 29.8 µM [inhibitor, single point]"
CCCCCCCCCCCCc1ccc(O)cc1,Potency,[4],active: 40.8 µM
same,Potency,[5],"inconclusive: 28.9 µM [cytotoxic, partial curve, poor fit]"
same,Potency,[13],inconclusive: 32.4 µM [partial curve]
same,Potency,[9],"inconclusive: 34.4 µM [rising, full curve]"
same,Potency,[10],inconclusive: 30.6 µM
same,Potency,[2],"inconclusive: 19.3 µM [activator, full curve, poor fit]"
same,Potency,[12],active: 61.1 µM
COC(=O)CC(C(C)=O)C(=O)OC (stereo unspecified),Potency,[4],inactive
same,Potency,[5],inactive
same,Potency,[13],inactive
same,activation,[3],inconclusive: -25.2%
O=C(O)CCCCCCCC(=O)O,Potency,[1],inactive
same,activation,[2],inconclusive: 1.03%
same,activation,[3],inconclusive: -10.7% [at 42.5 µM]
CCCCCCCCCCCCCCCCCC[N+](C)(C)Cc1ccccc1,Potency,[4],active: 46.2 µM
same,Potency,[5],active: 20.6 µM
same,Potency,[13],"inconclusive: 46.2 µM [cytotoxic, single point]"
same,Potency,[14],"inconclusive: 55.5 µM [activator, single point]"
same,Potency,[7],active: 0.19 µM
same,Potency,[9],inconclusive: 24.6 µM [fluorescent]
same,Potency,[10],"inconclusive: 69.2 µM [cytotoxic, single point]"
same,Potency,[11],active: 61.7 µM
same,Potency,[2],inconclusive: 69.2 µM [inhibitor]
same,Potency,[12],"inconclusive: 69.2 µM [inhibitor, single point]"
Cc1ccc(C=O)s1,Potency,[4],"inconclusive: 51.3 µM [cytotoxic, single point]"
Nc1ccn([C@@H]2O[C@H](CO)[C@@H](O)C2O)c(=O)n1 (stereo partly specified),Potency,[4],"inconclusive: 51.3 µM [rising, single point]"
O=S(O)(O)=S,Potency,[4],"inconclusive: 0.0982 µM [cytotoxic, single point]"
same,"activity change, negative = cytotoxicity",[5],inactive: -0.464% [at 5.99 µM]
same,activation,[13],inactive: -3.63% [at 5.99 µM]
same,Potency,[2],"inconclusive: 1.65 µM [inhibitor, single point]"
O=CO,Potency,[4],"inconclusive: 0.0106 µM [cytotoxic, single point]"
same,"activity change, negative = cytotoxicity",[5],inactive: -6.99% [at 5.99 µM]
same,"activity, negative = inhibition",[6],inactive: 0.711% [at 5.62 µM]
same,"activity change, negative = inhibition",[10],inactive: -5.34% [at 8.39 µM]
same,Potency,[2],"inconclusive: 0.398 µM [inhibitor, full curve, poor fit]"
c1ccc2n[nH]nc2c1,Potency,[4],inactive
same,Potency,[5],"inconclusive: 0.396 µM [cytotoxic, single point]"
same,Potency,[2],"inconclusive: 942 nM [inhibitor, partial curve, poor fit] and inactive"
CCCCC(CC)C(=O)O (stereo unspecified),Potency,[4],inactive
same,Potency,[5],"inconclusive: 18.3 µM [rising, single point]"
same,Potency,[6],"inconclusive: 47.2 µM [inhibitor, single point]"
same,Potency,[7],"inconclusive: 0.0188 µM [inhibitor, full curve, poor fit]"
same,activation,[2],inconclusive: -41.4% and inconclusive: 2.21%
CC(=O)Oc1ccc(C(C)=O)cc1,Potency,[4],"inconclusive: 53.4 µM [rising, partial curve, poor fit]"
same,Potency,[5],inactive
same,Potency,[2],inactive
C[C@@]12C(=O)OC(=O)[C@]1(C)C1CCC2O1,Potency,[4],"inconclusive: 4.46 µM [rising, partial curve]"
same,Potency,[5],"inconclusive: 0.354 µM [rising, full curve]"
same,Potency,[9],"inconclusive: 7.5 µM [rising, full curve]"
same,Potency,[10],"inconclusive: 13.3 µM [rising, full curve]"

# Random excerpt: 3 records from the list.
smiles,measurement,setting,value
CCCCCCCCCCCCc1ccc(O)cc1,Potency,[2],"inconclusive: 19.3 µM [activator, full curve, poor fit]"
CCCCCCCCCCCCCCCCCC[N+](C)(C)Cc1ccccc1,Potency,[12],"inconclusive: 69.2 µM [inhibitor, single point]"
CCCCC(CC)C(=O)O (stereo unspecified),Potency,[4],inactive
